Results published in patent US8133851B2, “Heteroaroyl-substituted serine amides” (BASF SE, priority 2007, dated 2012).
Some of these results come from one statement about several compounds together.

Assays:
Assay in all cases: greenhouse post-emergence treatment, herbicidal action
Conditions in all cases: application rate 1 kg/ha, scale 0 to 100 (100 = complete destruction, 0 = no damage), test period 2 to 4 weeks
Setaria viridis = assay type: in vivo, Setaria viridis (green foxtail)
Amaranthus retroflexus = assay type: in vivo, Amaranthus retroflexus (pig weed)
Chenopodium album = assay type: in vivo, Chenopodium album (lambsquarters)

CNC(=O)C(NC(=O)c1cn(C)nc1C(F)(F)F)C1(O)CCOCC1 (stereo not drawn) [Compound 2.2]
> 80%: post-emergence action against the unwanted plant Setaria viridis (Setaria viridis) | post-emergence action against the unwanted plant Amaranthus retroflectus (Amaranthus retroflexus) | post-emergence action against the unwanted plant Chenopodium album (Chenopodium album)

CNC(=O)C(NC(=O)c1cn(C)nc1C(F)(F)F)C1(OC(=O)N(C)C)CCS(=O)(=O)CC1 (stereo not drawn) [Compound 2.9]
> 80%: post-emergence action against the unwanted plant Setaria viridis (Setaria viridis) | post-emergence action against the unwanted plant Amaranthus retroflectus (Amaranthus retroflexus) | post-emergence action against the unwanted plant Chenopodium album (Chenopodium album)

CNC(=O)OC1(C(NC(=O)c2cn(C)nc2C(F)(F)F)C(=O)NC)CCOC1C (stereo not drawn) [Compound 2.24]
> 80%: post-emergence action against the unwanted plant Setaria viridis (Setaria viridis) | post-emergence action against the unwanted plant Amaranthus retroflectus (Amaranthus retroflexus) | post-emergence action against the unwanted plant Chenopodium album (Chenopodium album)

CNC(=O)OC1(C(NC(=O)c2cn(C)nc2C(F)(F)F)C(=O)NC)C(C)CCC1C (stereo not drawn) [Compound 2.27]
> 80%: post-emergence action against the unwanted plant Setaria viridis (Setaria viridis) | post-emergence action against the unwanted plant Amaranthus retroflectus (Amaranthus retroflexus) | post-emergence action against the unwanted plant Chenopodium album (Chenopodium album)

CNC(=O)OC1(C(NC(=O)c2cn(C)nc2C(F)(F)F)C(=O)NC)CCN(C(=O)OC(C)(C)C)C1 (stereo not drawn) [Compound 2.28]
> 80%: post-emergence action against the unwanted plant Setaria viridis (Setaria viridis) | post-emergence action against the unwanted plant Amaranthus retroflectus (Amaranthus retroflexus) | post-emergence action against the unwanted plant Chenopodium album (Chenopodium album)

CNC(=O)OC1(C(NC(=O)c2cn(C)nc2C(F)(F)F)C(=O)NC)CCCCCC1 (stereo not drawn) [Compound 2.31]
> 80%: post-emergence action against the unwanted plant Setaria viridis (Setaria viridis) | post-emergence action against the unwanted plant Amaranthus retroflectus (Amaranthus retroflexus) | post-emergence action against the unwanted plant Chenopodium album (Chenopodium album)

CNC(=O)C(NC(=O)c1cn(C)nc1C(F)(F)F)C1(OC(=O)N(C)C)CCC1 (stereo not drawn) [Compound 2.34]
> 80%: post-emergence action against the unwanted plant Setaria viridis (Setaria viridis) | post-emergence action against the unwanted plant Amaranthus retroflectus (Amaranthus retroflexus) | post-emergence action against the unwanted plant Chenopodium album (Chenopodium album)

CNC(=O)C(NC(=O)c1cn(C)nc1C(F)(F)F)C1(OC(C)=O)CCCC1 (stereo not drawn) [Compound 2.35]
> 80%: post-emergence action against the unwanted plant Setaria viridis (Setaria viridis) | post-emergence action against the unwanted plant Amaranthus retroflectus (Amaranthus retroflexus) | post-emergence action against the unwanted plant Chenopodium album (Chenopodium album)

CNC(=O)C(NC(=O)c1cn(C)nc1C(F)(F)F)C1(OC(=O)N(C)C)CCCC1 (stereo not drawn) [Compound 2.36]
> 80%: post-emergence action against the unwanted plant Setaria viridis (Setaria viridis) | post-emergence action against the unwanted plant Amaranthus retroflectus (Amaranthus retroflexus) | post-emergence action against the unwanted plant Chenopodium album (Chenopodium album)

CNC(=O)C(NC(=O)c1cn(C)nc1C(F)(F)F)C1(OC(N)=O)CCCC1 (stereo not drawn) [Compound 2.38]
> 80%: post-emergence action against the unwanted plant Setaria viridis (Setaria viridis) | post-emergence action against the unwanted plant Amaranthus retroflectus (Amaranthus retroflexus) | post-emergence action against the unwanted plant Chenopodium album (Chenopodium album)

CNC(=O)C(NC(=O)c1cn(C)nc1C(F)(F)F)C1(O)CC2CCC1C2 (stereo not drawn) [Compound 2.41]
> 80%: post-emergence action against the unwanted plant Setaria viridis (Setaria viridis) | post-emergence action against the unwanted plant Amaranthus retroflectus (Amaranthus retroflexus) | post-emergence action against the unwanted plant Chenopodium album (Chenopodium album)

CNC(=O)OC1(C(NC(=O)c2cn(C)nc2C(F)(F)F)C(=O)NC)CC2CCC1C2 (stereo not drawn) [Compound 2.43]
> 80%: post-emergence action against the unwanted plant Setaria viridis (Setaria viridis) | post-emergence action against the unwanted plant Amaranthus retroflectus (Amaranthus retroflexus) | post-emergence action against the unwanted plant Chenopodium album (Chenopodium album)

CNC(=O)C(NC(=O)c1cn(C)nc1C(F)(F)F)C1(OC(=O)N(C)C)CC2CCC1C2 (stereo not drawn) [Compound 2.44]
> 80%: post-emergence action against the unwanted plant Setaria viridis (Setaria viridis) | post-emergence action against the unwanted plant Amaranthus retroflectus (Amaranthus retroflexus) | post-emergence action against the unwanted plant Chenopodium album (Chenopodium album)

CNC(=O)C(NC(=O)c1cn(C)nc1C(F)(F)F)C1(OC(=O)N(C)C)CC2C=CC1C2 (stereo not drawn) [Compound 2.48]
> 80%: post-emergence action against the unwanted plant Setaria viridis (Setaria viridis) | post-emergence action against the unwanted plant Amaranthus retroflectus (Amaranthus retroflexus) | post-emergence action against the unwanted plant Chenopodium album (Chenopodium album)

CNC(=O)C(NC(=O)c1cn(C)nc1C(F)(F)F)C1(OC(=O)N(C)C)CC2C=CCC21 (stereo not drawn) [Compound 2.50]
> 80%: post-emergence action against the unwanted plant Setaria viridis (Setaria viridis) | post-emergence action against the unwanted plant Amaranthus retroflectus (Amaranthus retroflexus) | post-emergence action against the unwanted plant Chenopodium album (Chenopodium album)

CNC(=O)OC1(C(NC(=O)c2cn(C)nc2C(F)(F)F)C(=O)NC)CC2C=CCC21 (stereo not drawn) [Compound 2.51]
> 80%: post-emergence action against the unwanted plant Setaria viridis (Setaria viridis) | post-emergence action against the unwanted plant Amaranthus retroflectus (Amaranthus retroflexus) | post-emergence action against the unwanted plant Chenopodium album (Chenopodium album)

CNC(=O)C(NC(=O)c1cn(C)nc1C(F)(F)F)C1(OC(=O)N(C)C)CCC(O)CC1 (stereo not drawn) [Compound 2.53]
> 80%: post-emergence action against the unwanted plant Setaria viridis (Setaria viridis) | post-emergence action against the unwanted plant Amaranthus retroflectus (Amaranthus retroflexus) | post-emergence action against the unwanted plant Chenopodium album (Chenopodium album)

CNC(=O)C(NC(=O)c1cn(C)nc1C(F)(F)F)C1(OC(=O)N(C)C)CCC(=O)CC1 (stereo not drawn) [Compound 2.55]
> 80%: post-emergence action against the unwanted plant Setaria viridis (Setaria viridis) | post-emergence action against the unwanted plant Amaranthus retroflectus (Amaranthus retroflexus) | post-emergence action against the unwanted plant Chenopodium album (Chenopodium album)

CNC(=O)C(NC(=O)c1cn(C)nc1C(F)(F)F)C1(O)CCCOC1 (stereo not drawn) [Compound 2.56]
> 80%: post-emergence action against the unwanted plant Setaria viridis (Setaria viridis) | post-emergence action against the unwanted plant Amaranthus retroflectus (Amaranthus retroflexus) | post-emergence action against the unwanted plant Chenopodium album (Chenopodium album)

CNC(=O)C(NC(=O)c1cn(C)nc1C(F)(F)F)C1(O)CCN(C(=O)N(C)C)CC1 (stereo not drawn) [Compound 2.57]
> 80%: post-emergence action against the unwanted plant Setaria viridis (Setaria viridis) | post-emergence action against the unwanted plant Amaranthus retroflectus (Amaranthus retroflexus) | post-emergence action against the unwanted plant Chenopodium album (Chenopodium album)

CNC(=O)C(NC(=O)c1cn(C)nc1C(F)(F)F)C1(OC(=O)N(C)C)CCN(C(C)=O)CC1.Cl (stereo not drawn) [Compound 2.61]
> 80%: post-emergence action against the unwanted plant Setaria viridis (Setaria viridis) | post-emergence action against the unwanted plant Amaranthus retroflectus (Amaranthus retroflexus) | post-emergence action against the unwanted plant Chenopodium album (Chenopodium album)

CNC(=O)C(NC(=O)c1cn(C)nc1C(F)(F)F)C1(OC(=O)N(C)C)CCOC1C (stereo not drawn) [Compound 2.71]
> 80%: post-emergence action against the unwanted plant Setaria viridis (Setaria viridis) | post-emergence action against the unwanted plant Amaranthus retroflectus (Amaranthus retroflexus) | post-emergence action against the unwanted plant Chenopodium album (Chenopodium album)

CNC(=O)C(NC(=O)c1cn(C)nc1C(F)(F)F)C1(OC(=O)N(C)C)CCCC1C (stereo not drawn) [Compound 2.72]
> 80%: post-emergence action against the unwanted plant Setaria viridis (Setaria viridis) | post-emergence action against the unwanted plant Amaranthus retroflectus (Amaranthus retroflexus) | post-emergence action against the unwanted plant Chenopodium album (Chenopodium album)

CNC(=O)C(NC(=O)c1cn(C)nc1C(F)(F)F)C1(OC(=O)N(C)C)CCN(C(=O)OC(C)(C)C)C1 (stereo not drawn) [Compound 2.74]
> 80%: post-emergence action against the unwanted plant Setaria viridis (Setaria viridis) | post-emergence action against the unwanted plant Amaranthus retroflectus (Amaranthus retroflexus) | post-emergence action against the unwanted plant Chenopodium album (Chenopodium album)

CNC(=O)C(NC(=O)c1cn(C)nc1C(F)(F)F)C1(OC(=O)N(C)C)CCN(C(=O)OC)C1 (stereo not drawn) [Compound 2.80]
> 80%: post-emergence action against the unwanted plant Setaria viridis (Setaria viridis) | post-emergence action against the unwanted plant Amaranthus retroflectus (Amaranthus retroflexus) | post-emergence action against the unwanted plant Chenopodium album (Chenopodium album)

CNC(=O)C(NC(=O)c1cn(C)nc1C(F)(F)F)C1(OC(=O)N(C)C)CCC(=NNS(C)(=O)=O)CC1 (stereo not drawn) [Compound 2.83]
> 80%: post-emergence action against the unwanted plant Setaria viridis (Setaria viridis) | post-emergence action against the unwanted plant Amaranthus retroflectus (Amaranthus retroflexus) | post-emergence action against the unwanted plant Chenopodium album (Chenopodium album)

CNC(=O)C(NC(=O)c1cn(C)nc1C(F)(F)F)C1(OC(=O)N(C)C)CCC(=NOC)CC1 (stereo not drawn) [Compound 2.85]
> 80%: post-emergence action against the unwanted plant Setaria viridis (Setaria viridis) | post-emergence action against the unwanted plant Amaranthus retroflectus (Amaranthus retroflexus) | post-emergence action against the unwanted plant Chenopodium album (Chenopodium album)
